Data as given in paper doi:10.1101/2025.09.25.678687.
Results are given in words; binding and its absence hold for the method and conditions named. Binding seen in cells or lysates may run through a third protein. Some binding calls cover weakened binding; strength is not graded here. For some of these results: Sequences can lack the tags named with a protein.

Sequences of proteins named here, by UniProt entry; tags and fusion partners are left off.
UniProt P35637: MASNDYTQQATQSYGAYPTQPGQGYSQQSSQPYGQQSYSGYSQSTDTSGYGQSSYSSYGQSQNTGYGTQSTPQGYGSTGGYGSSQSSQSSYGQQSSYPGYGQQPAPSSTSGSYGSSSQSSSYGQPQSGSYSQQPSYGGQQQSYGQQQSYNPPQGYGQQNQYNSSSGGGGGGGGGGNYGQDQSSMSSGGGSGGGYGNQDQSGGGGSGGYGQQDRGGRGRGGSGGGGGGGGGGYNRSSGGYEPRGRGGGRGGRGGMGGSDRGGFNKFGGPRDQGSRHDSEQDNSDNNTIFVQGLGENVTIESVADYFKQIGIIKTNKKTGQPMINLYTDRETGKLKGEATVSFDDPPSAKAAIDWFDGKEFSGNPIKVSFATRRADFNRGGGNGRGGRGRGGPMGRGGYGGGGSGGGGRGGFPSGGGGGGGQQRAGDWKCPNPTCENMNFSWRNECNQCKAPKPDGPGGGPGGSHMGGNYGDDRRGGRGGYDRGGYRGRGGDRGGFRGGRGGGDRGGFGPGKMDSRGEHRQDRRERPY
UniProt Q14157: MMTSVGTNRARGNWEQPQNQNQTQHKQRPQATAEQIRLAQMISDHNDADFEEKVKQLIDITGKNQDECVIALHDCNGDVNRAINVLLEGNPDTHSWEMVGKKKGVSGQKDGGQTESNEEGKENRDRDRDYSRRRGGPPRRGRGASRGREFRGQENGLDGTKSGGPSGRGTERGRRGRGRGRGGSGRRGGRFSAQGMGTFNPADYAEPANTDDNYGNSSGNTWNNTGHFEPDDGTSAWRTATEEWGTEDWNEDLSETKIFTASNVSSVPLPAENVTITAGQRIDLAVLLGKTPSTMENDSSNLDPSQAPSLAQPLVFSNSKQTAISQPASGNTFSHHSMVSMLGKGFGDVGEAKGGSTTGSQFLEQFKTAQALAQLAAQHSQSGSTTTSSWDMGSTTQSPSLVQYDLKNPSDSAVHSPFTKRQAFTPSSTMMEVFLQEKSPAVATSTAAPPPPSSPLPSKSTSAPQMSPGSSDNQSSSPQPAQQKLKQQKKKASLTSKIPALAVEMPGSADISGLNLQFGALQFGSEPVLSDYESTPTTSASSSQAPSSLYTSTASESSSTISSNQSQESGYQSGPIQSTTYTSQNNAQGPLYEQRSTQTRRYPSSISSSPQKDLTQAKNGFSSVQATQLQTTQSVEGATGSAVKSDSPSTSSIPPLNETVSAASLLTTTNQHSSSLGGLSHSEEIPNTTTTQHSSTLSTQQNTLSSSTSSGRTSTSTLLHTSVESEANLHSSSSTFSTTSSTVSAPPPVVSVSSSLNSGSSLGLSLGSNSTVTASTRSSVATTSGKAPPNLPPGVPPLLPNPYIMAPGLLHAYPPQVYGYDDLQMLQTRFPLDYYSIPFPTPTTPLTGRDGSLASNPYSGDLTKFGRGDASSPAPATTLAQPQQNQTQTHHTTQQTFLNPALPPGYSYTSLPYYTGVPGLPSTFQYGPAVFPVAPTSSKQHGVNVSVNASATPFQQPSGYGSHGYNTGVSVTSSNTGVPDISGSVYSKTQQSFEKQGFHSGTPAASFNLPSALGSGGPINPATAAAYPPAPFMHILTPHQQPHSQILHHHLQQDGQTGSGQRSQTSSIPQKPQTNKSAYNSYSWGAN
UniProt P15559: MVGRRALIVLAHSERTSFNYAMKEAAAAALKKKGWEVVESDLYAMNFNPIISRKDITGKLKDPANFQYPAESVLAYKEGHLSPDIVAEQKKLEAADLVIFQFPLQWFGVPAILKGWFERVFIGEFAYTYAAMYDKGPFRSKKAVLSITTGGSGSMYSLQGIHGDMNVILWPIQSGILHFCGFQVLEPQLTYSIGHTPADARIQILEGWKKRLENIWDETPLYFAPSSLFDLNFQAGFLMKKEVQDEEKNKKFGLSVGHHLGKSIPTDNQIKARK

Tests used:
Assay in all cases: co-IP
[1] = molecular target: FUS cloned into the PKH3-HA vector, expressed in HEK-293T cells (UniProt P35637)
[2] = molecular target: HA-tagged UBAP2L, expressed in HEK-293T cells (UniProt Q14157)
[3] = molecular target: T1, HA-tagged Caprin1, expressed in HEK-293T cells (UniProt Q14444)
T1 sequence: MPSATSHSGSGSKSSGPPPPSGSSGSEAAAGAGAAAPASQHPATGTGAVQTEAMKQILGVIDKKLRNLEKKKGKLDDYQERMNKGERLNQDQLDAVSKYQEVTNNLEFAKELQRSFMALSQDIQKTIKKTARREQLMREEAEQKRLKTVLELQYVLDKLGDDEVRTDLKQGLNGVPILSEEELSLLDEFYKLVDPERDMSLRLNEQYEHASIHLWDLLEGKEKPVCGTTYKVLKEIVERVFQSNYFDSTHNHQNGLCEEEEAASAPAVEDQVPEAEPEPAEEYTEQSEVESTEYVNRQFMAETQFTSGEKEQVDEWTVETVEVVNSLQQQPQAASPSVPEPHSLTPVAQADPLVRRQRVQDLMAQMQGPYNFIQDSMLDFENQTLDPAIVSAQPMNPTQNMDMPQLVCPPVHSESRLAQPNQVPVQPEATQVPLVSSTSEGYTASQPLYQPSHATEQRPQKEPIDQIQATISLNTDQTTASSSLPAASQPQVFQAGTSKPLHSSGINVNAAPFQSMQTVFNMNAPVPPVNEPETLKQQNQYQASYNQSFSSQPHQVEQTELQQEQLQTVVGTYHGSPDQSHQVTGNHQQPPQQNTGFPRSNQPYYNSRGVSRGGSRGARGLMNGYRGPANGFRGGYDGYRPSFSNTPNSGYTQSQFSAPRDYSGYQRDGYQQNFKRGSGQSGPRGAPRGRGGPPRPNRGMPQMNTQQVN

[4] = molecular target: T2, TIA1 cloned into the PKH3-HA vector, expressed in HEK-293T cells (human) (UniProt P31483)
T2 sequence: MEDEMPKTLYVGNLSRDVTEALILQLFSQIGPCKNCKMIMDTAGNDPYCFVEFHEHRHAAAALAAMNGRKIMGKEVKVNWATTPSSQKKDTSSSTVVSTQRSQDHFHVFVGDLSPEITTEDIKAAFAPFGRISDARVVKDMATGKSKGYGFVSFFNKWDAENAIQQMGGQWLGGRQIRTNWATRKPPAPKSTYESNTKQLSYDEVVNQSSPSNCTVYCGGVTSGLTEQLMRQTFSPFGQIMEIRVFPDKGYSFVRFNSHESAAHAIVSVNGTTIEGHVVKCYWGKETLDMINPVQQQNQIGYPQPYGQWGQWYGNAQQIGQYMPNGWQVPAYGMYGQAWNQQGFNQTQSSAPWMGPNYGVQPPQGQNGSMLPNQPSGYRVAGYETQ

Measured: binding

Flag-tagged NQO1 full length, expressed in HEK-293T cells (from UniProt P15559 1-274) (enzyme)
binds: all assays above
